Measurements: article PMC7612807
These are yes or no findings as the source states them, for the method shown. Binding seen in cells or lysates may run through a third protein. Some binding calls cover weakened binding; strength is not graded here. For part of these data: Where a sequence is shown, tags or fusion partners need not be part of it.

The chains behind the UniProt entries cited, without tags or fusion partners.
UniProt Q9P296: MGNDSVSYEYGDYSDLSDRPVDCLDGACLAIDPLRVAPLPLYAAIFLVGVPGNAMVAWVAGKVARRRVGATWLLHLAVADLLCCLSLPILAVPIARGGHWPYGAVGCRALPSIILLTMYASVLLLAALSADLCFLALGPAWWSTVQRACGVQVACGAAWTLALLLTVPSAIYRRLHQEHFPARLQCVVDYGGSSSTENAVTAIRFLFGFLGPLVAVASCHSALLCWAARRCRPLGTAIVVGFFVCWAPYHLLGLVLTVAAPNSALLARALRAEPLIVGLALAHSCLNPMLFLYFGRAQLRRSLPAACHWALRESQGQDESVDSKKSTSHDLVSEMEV
UniProt P32121: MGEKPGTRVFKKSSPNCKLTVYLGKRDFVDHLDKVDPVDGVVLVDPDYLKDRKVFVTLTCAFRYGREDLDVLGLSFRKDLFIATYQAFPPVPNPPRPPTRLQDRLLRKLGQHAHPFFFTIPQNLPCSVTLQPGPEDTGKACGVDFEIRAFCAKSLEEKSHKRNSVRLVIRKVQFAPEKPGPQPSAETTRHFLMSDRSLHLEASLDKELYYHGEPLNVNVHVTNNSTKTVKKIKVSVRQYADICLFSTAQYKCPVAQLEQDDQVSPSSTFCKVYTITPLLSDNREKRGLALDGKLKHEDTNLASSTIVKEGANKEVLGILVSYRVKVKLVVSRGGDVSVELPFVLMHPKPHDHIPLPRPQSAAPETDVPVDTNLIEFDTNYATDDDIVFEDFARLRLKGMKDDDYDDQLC
UniProt P49407: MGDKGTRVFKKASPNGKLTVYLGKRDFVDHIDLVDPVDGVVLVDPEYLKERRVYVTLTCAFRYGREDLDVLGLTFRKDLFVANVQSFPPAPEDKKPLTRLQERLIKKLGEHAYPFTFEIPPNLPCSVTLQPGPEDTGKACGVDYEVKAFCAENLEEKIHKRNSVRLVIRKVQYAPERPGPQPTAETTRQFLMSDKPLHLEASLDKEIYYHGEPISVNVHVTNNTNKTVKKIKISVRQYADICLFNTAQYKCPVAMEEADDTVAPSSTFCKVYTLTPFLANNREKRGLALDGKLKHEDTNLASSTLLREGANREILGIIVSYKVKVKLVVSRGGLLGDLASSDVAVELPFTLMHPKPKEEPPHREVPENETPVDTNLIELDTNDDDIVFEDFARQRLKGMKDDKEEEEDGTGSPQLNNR

Legend:
[1] = target: FLAG-tagged complement C5a receptor subtype 2 (UniProt Q9P296); experiment: co-IP + cross-linking; βarr1 or βarr2 (3.5 μg DNA) co-expressed with the FLAG-receptor in HEK293 cells; agonist stimulation; DSP cross-linking; FLAG M1 beads; blot with anti-βarr antibody
[2] = target: T1, FLAG-tagged decoy D6 receptor, wild type (human) (UniProt O00590); experiment: as above
T1 sequence: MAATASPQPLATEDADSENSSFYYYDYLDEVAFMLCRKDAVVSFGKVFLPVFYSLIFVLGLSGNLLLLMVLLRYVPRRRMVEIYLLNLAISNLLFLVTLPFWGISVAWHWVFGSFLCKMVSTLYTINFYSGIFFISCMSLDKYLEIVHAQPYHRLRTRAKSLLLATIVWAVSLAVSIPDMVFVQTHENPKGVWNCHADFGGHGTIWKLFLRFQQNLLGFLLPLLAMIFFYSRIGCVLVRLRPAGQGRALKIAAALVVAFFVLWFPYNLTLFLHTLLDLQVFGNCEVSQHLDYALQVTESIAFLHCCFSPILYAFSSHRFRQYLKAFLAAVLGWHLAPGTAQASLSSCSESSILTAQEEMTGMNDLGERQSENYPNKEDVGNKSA

[3] = target: T1, FLAG-tagged decoy D6 receptor, wild type (human); experiment: co-IP + cross-linking; HEK293 cells co-transfected with D6R-WT or truncations (surface expression normalised) and βarr2; 100 nM CCL7 for 30 min; lysis in 20 mM HEPES pH 7.5, 350 mM NaCl; DSP 1.5 mM; 1% MNG; M1-FLAG beads, low and high salt washes; blot with anti-βarr antibody
[4] = target: FLAG-tagged complement C5a receptor subtype 2 (UniProt Q9P296); experiment: co-IP + cross-linking; lysate of HEK293 cells expressing FLAG-receptor, stimulated with 100 nM agonist (C5a for C5aR2, CCL7 for D6R); purified βarr1 or βarr2 (2.5 μg) added, 1 h room temperature; DSP 1.5 mM; solubilised in 1% MNG; captured on FLAG M1 antibody beads; blot with anti-βarr antibody; only the binder purified
[5] = target: T1, FLAG-tagged decoy D6 receptor, wild type (human); experiment: as above

| binding [1] | binding [2] | binding [3] | binding [4] | binding [5] | Substance |
| --- | --- | --- | --- | --- | --- |
| binds | binds | binds | – | – | β-arrestin 2 co-expressed with the receptor in HEK293 cells (from UniProt P32121 1-409) |
| – | – | – | binds | binds | purified β-arrestin 2 (from UniProt P32121 1-409) |
| binds | binds | – | – | – | β-arrestin 1 co-expressed with the receptor in HEK293 cells (from UniProt P49407 1-418) |
| – | – | – | binds | binds | purified β-arrestin 1 (from UniProt P49407 1-418) |
